Test results published in the supplement of paper PMC8732350.
Counter-ions that a name gives are not always drawn. ± gives the standard deviation of the averaged measurements. This is one part of the list. Repeats in this data set agree poorly, so a single value says little.

Tested on: A549
Test: surface PD-L1 immunofluorescence intensity relative to IFN-gamma-only control (ratio); higher = more PD-L1 expression
Conditions: 10 µM; exposure time 24 h; IFN-gamma 100 ng/mL

SMILES | surface PD-L1 immunofluorescence intensity
O=C(O)Cc1ccccc1Nc1c(Cl)cccc1Cl [Diclofenac sodium] | 1.11
O=C(O)Cc1ccccc1Nc1c(Cl)cccc1Cl [Diclofenac Diethylamine] | 0.969
Cc1nn(C)c2nc(NNC(=O)Nc3cc(Cl)nc(Cl)c3)cc(C(C)C)c12 | 0.901
C[C@@H](c1ncncc1F)[C@](O)(Cn1cncn1)c1ccc(F)cc1F [Voriconazole] | 1.05
CN[C@@H](C)[C@H]1[C@H](O)C[C@@]2(C)[C@@H]3CC[C@H]4C(C)(C)[C@@H](NC)CC[C@@]45C[C@@]35CC[C@]12C [Cyclovirobuxin D (Bebuxine)] | 0.859
CN1CCN(CCCN2c3ccccc3Sc3ccc(S(=O)(=O)N(C)C)cc32)CC1 [Thioproperazine dimesylate] | 0.941
C[C@@H]1CC(=O)NN=C1c1ccc(NN=C(C#N)C#N)cc1 [Levosimendan] | 0.968
COc1ccc(-c2nc(C(=O)N3CCN(C)CC3)sc2-c2ccc(OC)cc2)cc1 | 0.994
CC(C)C(=O)SCCCCCCC(=O)Nc1nc(-c2ccccc2)cs1 | 0.965
CC(=O)Oc1cc(C(F)(F)F)ccc1C(=O)O [Triflusal] | 1.01
CNC(=O)c1ccc2cc([C@@]3(O)CCn4cncc43)ccc2c1 [TAK-700 (Orteronel)] | 1.12
O=C(O)CC/C=C\C[C@H]1CO[C@@H](c2ccccc2Cl)O[C@H]1c1ccccc1O | 0.866
C[C@]12C=CC(=O)C=C1CC[C@@H]1[C@@H]2[C@@H](O)C[C@@]2(C)[C@H]1CC[C@]2(O)C(=O)CO [Prednisolone (Hydroretrocortine)] | 0.888
O=c1ncn2nc(Sc3ccc(F)cc3F)ccc2c1-c1c(Cl)cccc1Cl | 0.995
CC(C)Cc1ccc([C@H](C)C(=O)O)cc1 [S-(+)-ibuprofen] | 0.996
Cc1cncc(CN2CCC(=C3c4ccc(Cl)cc4CCc4cccnc43)CC2)c1 [Rupatadine Fumarate] | 1.06
CS(=O)(=O)c1ccc([C@@H](O)[C@@H](CO)NC(=O)C(Cl)Cl)cc1 [Thiamphenicol] | 0.878
COc1[nH]c2ccc(F)cc2c1C(=O)OCC1CCN(CCNS(C)(=O)=O)CC1.NS(=O)(=O)O | 1.08
CC1(C)CCC(c2ccc(Cl)cc2)=C(CN2CCN(c3ccc(C(=O)NS(=O)(=O)c4ccc(N[C@H](CCN5CCOCC5)CSc5ccccc5)c(S(=O)(=O)C(F)(F)F)c4)cc3)CC2)C1 [ABT-263 (Navitoclax)] | 1.12
CC(C)Cc1ccc(C(C)C(=O)NO)cc1 (stereo not given) [Ibuproxam] | 1
CCOC(=O)N1CCC(=C2c3ccc(Cl)cc3CCc3cccnc32)CC1 [Loratadine] | 1.05
CCOC(=O)N1CCC(=C2c3ccc(Cl)cc3CCc3cccnc32)CC1 [Loratidine] | 1.06
O=C(NOCC1CC1)c1ccc(F)c(F)c1Nc1ccc(I)cc1Cl | 0.945
Nc1nc(F)nc2c1ncn2[C@@H]1O[C@H](COP(=O)(O)O)[C@@H](O)[C@@H]1O [Fludarabine Phosphate (Fludara)] | 1.05
CN1CCN(S(=O)(=O)c2ccc(-c3cnc(N)c(C(=O)Nc4cccnc4)n3)cc2)CC1 | 1.11

SMILES | surface PD-L1 immunofluorescence intensity
COc1ccc(CC(C)NCC(O)c2ccc(O)c(NC=O)c2)cc1 (stereo not given) [Formoterol fumarate] | 1.13
COc1ccc(CC(C)NCC(O)c2ccc(O)c(NC=O)c2)cc1 (stereo not given) [Formoterol hemifumarate] | 0.988
O=C(OCCN1CCOCC1)C1(c2ccccc2)CCCCC1 [PRE-084 hydrochloride] | 1.04
CS(=O)(=O)c1ccc(C(=O)Nc2ccc(Cl)c(-c3ccccn3)c2)c(Cl)c1 [Vismodegib (GDC-0449)] | 1.07
O=C1N[C@H](C(=O)O)CS1 [Procysteine] | 1.01
C[C@H](N[C@@H](CCc1ccccc1)C(=O)O)C(=O)N1CCC[C@H]1C(=O)O [Enalaprilat dihydrate] | 1.02
NC(=O)N1CCC(CC(=O)N2CCC([C@H]3c4ncc(Br)cc4CCc4cc(Cl)cc(Br)c43)CC2)CC1 | 1.08
CN(C)[C@@H]1C(O)=C(C(N)=O)C(=O)[C@@]2(O)C(O)=C3C(=O)c4c(O)cccc4[C@@](C)(O)[C@H]3C[C@@H]12 [Tetracycline hydrochloride] | 0.954
CCCCC1CCC(c2nc(-c3ccncc3)no2)CC1 (stereo not given) | 1
COCCCC/C(=N\OCCN)c1ccc(C(F)(F)F)cc1 [Fluvoxamine maleate] | 1.05 ± 0.16
C[C@]12CCC(=O)C=C1CC[C@@H]1[C@@H]2C(=O)C[C@@]2(C)[C@H]1CC[C@]2(O)C(=O)CO [Cortisone] | 1.02
COC(=O)[C@H](c1ccccc1Cl)N1CCc2sccc2C1 [Clopidogrel (Plavix)] | 1.03
Cc1c(Cl)cccc1Nc1ccccc1C(=O)O [Tolfenamic acid] | 0.932
COc1cc(F)c(C(C)C)cc1-c1ccc(C(F)(F)F)cc1CN1C(=O)O[C@H](c2cc(C(F)(F)F)cc(C(F)(F)F)c2)[C@@H]1C [Anacetrapib (MK-0859)] | 1
CO[C@H]1/C=C/O[C@@]2(C)Oc3c(C)c(O)c4c(O)c(c(/C=N/N5CCN(C)CC5)c(O)c4c3C2=O)NC(=O)/C(C)=C\C=C\[C@H](C)[C@H](O)[C@@H](C)[C@@H](O)[C@@H](C)[C@H](OC(C)=O)[C@@H]1C [Rifampin (Rifadin, Rimactane)] | 1.1
CO[C@H]1/C=C/O[C@@]2(C)Oc3c(C)c(O)c4c(O)c(c(/C=N/N5CCN(C)CC5)c(O)c4c3C2=O)NC(=O)/C(C)=C\C=C\[C@H](C)[C@H](O)[C@@H](C)[C@@H](O)[C@@H](C)[C@H](OC(C)=O)[C@@H]1C [Rifampicin] | 1.03 ± 0.073
CC(Oc1ccc(O)cc1)(P(=O)(O)O)P(=O)(O)O | 1.07 ± 0.052
Cc1ccc(N(CC2=NCCN2)c2cccc(O)c2)cc1 [Phentolamine hydrochloride] | 0.999
Cc1ccc(N(CC2=NCCN2)c2cccc(O)c2)cc1 [Phentolamine HCl] | 1.02
CC(C)(C)c1ccc(/C=C/C(=O)Nc2ccc3c(c2)OCCO3)cc1 | 0.96
CCc1ccc(CCOc2ccc(CC3SC(=O)NC3=O)cc2)nc1 (stereo not given) [Pioglitazone] | 0.91 ± 0.013
O=C(CCCCCCC(=O)Nc1cccnc1)NO [Pyroxamide] | 1.07
c1ccc(CC2=NCCN2)cc1 [Tolazoline hydrochloride] | 0.892
CC(C)(Oc1ccc(CCNC(=O)c2ccc(Cl)cc2)cc1)C(=O)O [Bezafibrate] | 0.981 ± 0.081
OCCN1CCN(CCCN2c3ccccc3Sc3ccc(C(F)(F)F)cc32)CC1 [Fluphenazine dihydrochloride] | 1.15

Reformatted with tabs: part of the list above.
SMILES	surface PD-L1 immunofluorescence intensity
COc1ccc(CC(C)NCC(O)c2ccc(O)c(NC=O)c2)cc1 (stereo not given) [Formoterol fumarate]	1.13
C[C@]12CCC(=O)C=C1CC[C@@H]1[C@@H]2C(=O)C[C@@]2(C)[C@H]1CC[C@]2(O)C(=O)CO [Cortisone]	1.02

Following part:

SMILES | surface PD-L1 immunofluorescence intensity
Clc1ccc2c(c1)C(N1CCNCC1)=Nc1ccccc1O2 [Amoxapine] | 0.96
O=C(O)CCCc1c[nH]c2ccccc12 [3-Indolebutyric acid (IBA)] | 1.07
O=C(c1cc(Cc2n[nH]c(=O)c3ccccc23)ccc1F)N1CCN(C(=O)C2CC2)CC1 [Olaparib (AZD2281)] | 1.01
CC(C)[C@@H](C)/C=C/[C@@H](C)[C@H]1CC[C@H]2C3=CC=C4C[C@@H](O)CC[C@]4(C)[C@H]3CC[C@]12C [Ergosterol] | 1.02
O=C1c2ccccc2C(=O)C1c1ccccc1 [Phenindione] | 1.04
CCCCCCCCOC(=O)/C=C/c1ccc(O)c(O)c1 [n-Octyl caffeate] | 0.998
O=C(O)CCc1nc(-c2ccccc2)c(-c2ccccc2)o1 [Oxaprozin] | 1.01
CC[C@H]1OC(=O)[C@H](C)[C@@H](O[C@H]2C[C@@](C)(OC)[C@@H](O)[C@H](C)O2)[C@H](C)[C@@H](O[C@@H]2O[C@H](C)C[C@H](N(C)C)[C@H]2O)[C@](C)(O)C[C@@H](C)C(=O)[C@H](C)[C@@H](O)[C@]1(C)O [Erythromycin (E-Mycin)] | 0.91
OC[C@@H](O)[C@@H](O)[C@H](O)[C@H](O)CO [D-Mannitol (Osmitrol)] | 1.13
C=CCc1ccc(O)c(OC)c1 [Eugenol] | 0.963
CC(=O)OCC(=O)NCCCOc1cccc(CN2CCCCC2)c1 [Roxatidine Acetate HCl] | 1.06
CCn1cc(C(=O)O)c(=O)c2cc(F)c(N3CCNCC3)nc21 [Enoxacin] | 1.11
C[C@H](NCc1ccc(OCc2cccc(F)c2)cc1)C(N)=O | 1.09
Oc1ccc(C2CNCCc3c2cc(O)c(O)c3Cl)cc1 (stereo not given) [Fenoldopam hydrochloride] | 0.929
CC(C(=O)O)c1cccc(Oc2ccccc2)c1 (stereo not given) [Fenoprofen calcium salt dihydrate] | 0.995
CC(C(=O)O)c1cccc(Oc2ccccc2)c1 (stereo not given) [Fenoprofen calcium hydrate] | 1.03
C[C@@H]1CN(CCCn2c3ccccc3c3ccccc32)C[C@H](C)N1 [Rimcazole dihydrochloride] | 0.928
NCC1CCC(C(=O)N[C@@H](Cc2ccccc2)C(=O)Nc2ccc(CC(=O)O)cc2)CC1 (stereo not given in full) | 1.06
O=C1NC(=O)C(c2ccccc2[N+](=O)[O-])=C1Nc1ccc(O)c(Cl)c1 | 0.946
OC[C@H]1OC(O)[C@H](O)[C@@H](O)[C@@H]1O (stereo partly drawn) [Dextrose (D-glucose)] | 1.09
CCCc1ncc(C[n+]2ccccc2C)c(N)n1 [Amprolium hydrochloride] | 0.866
O=C1NC(=O)/C(=C/c2ccc3nccc(-c4ccncc4)c3c2)S1 | 0.958
CN1Cc2c(C(=O)OC(C)(C)C)ncn2-c2ccsc2C1=O | 0.934
N#C/C(=C\c1ccc(O)c(O)c1)C(=O)Nc1ccccc1 | 0.946
CCCC[P+](CCCC)(CCCC)Cc1ccc(NC(=O)C(Cc2ccc3ccccc3c2)NC(=NC2CCCCC2)NC2CCCCC2)cc1 (stereo not given) | 1.08

Nothing new here: entries from further up.
SMILES | surface PD-L1 immunofluorescence intensity
CC(C(=O)O)c1cccc(Oc2ccccc2)c1 (stereo not given) [Fenoprofen calcium salt dihydrate] | 0.995
CC(C(=O)O)c1cccc(Oc2ccccc2)c1 (stereo not given) [Fenoprofen calcium hydrate] | 1.03
